Assay results from PMC8750527 (Cancers, 2021).

Columns and labels:
[1] = system: HDF; assay: MTT assay, 48 h exposure, human dermal fibroblasts; type: cell-based; conditions: Table 1, normal cells, mean ± SEM
Method: (§1) HDF (3000 cells), C8-D1A (5000 cells), D458 (5000 cells), DAOY (2000 cells), HD-MB03 (10,000 cells) and CHLA-01-Med (10,000 cells) were seeded at an approximate confluency of 50% in 96-well plates (Corning Inc., Corning, NY, USA) in 100 µL medium per well. A range from 50 nM to 150 µM of every drug was tested. The effects of the antiangiogenic compounds were measured using a 3-[4,5-dimethylthiazol-2yl]-diphenyltetrazolium bromide (MTT) colorimetric assay (Sigma, Lyon, France) according to the manufacturer’s instructions. When applicable, IC50 was calculated using the nonlinear regression method of the Prism 5 software (Graphpad Software Inc., San Diego, CA, USA). Alternatively, hCMEC/D3 [23] or HUVEC cells were plated at 5000 cells/well and incubated 24 h later for 2 and 3 days with 1, 5 or 25 µM of axitinib. An MTT assay was conducted as described above to assess the fitness of the cells.

[2] = system: C8-D1A; assay: MTT assay, 48 h exposure, murine primary astrocytes; type: cell-based; conditions: Mus musculus, Table 1, normal cells, mean ± SEM, read-out: IC50 (µM) C8D1A
Method: as §1

[3] = system: DAOY; assay: MTT assay, 48 h exposure, DAOY MB cells; type: cell-based, human
Method: as §1

[4] = system: HD-MB03; assay: MTT assay, 48 h exposure, HD-MB03 MB cells; type: cell-based, human
Method: as §1

[5] = system: D458; assay: MTT assay, 48 h exposure, D458 MB cells; type: cell-based, human
Method: as §1

[6] = system: CHLA-01-Med; assay: MTT assay, 48 h exposure, CHLA-01-Med MB cells; type: cell-based, human
Method: as §1

[7] = system: cocultures of HD-MB03 or DAOY with C8-D1A cells; assay: 2D coculture of MB cells and astrocytes, FACS quantification; type: cell-based; conditions: axitinib 5 µM or etoposide 1 µM
Method: (§2) C8-D1A cells were stained with the green fluorescent probe neuro-DiO (cat. number 60015, Biotium, Fremont, CA, USA) according to the manufacturer’s protocol. C8-D1A-neuroDio cells (150,000) and HD-MB03-mCherry or DAOY-mCherry cells (50,000) were plated in 12-well plates. […] Fluorescence images of the cells were taken with a DMI400 inverted microscope (Leica Microsystemes SAS, Nanterre, France) equipped with a 40× objective and a Zyla 5.5 camera (Andor Technologies, Belfast, UK). The cells were then trypsinized and the number of both cell types was quantified using a Melody FACS (BD Biosciences, Frankton Lake, NJ, USA) with a 488 nm laser beam. Analysis of the FACS data was conducted with the Flowjo software (Tree Star Inc., Ashland, OR, USA).

[8] = system: C8-D1A/HD-MB03 mixed spheroids; assay: 3D mixed spheroids of astrocytes and MB cells; type: cell-based; conditions: 7 days; axitinib 5 µM or etoposide 1 µM
Method: as §2
Two thousand cells were seeded in ultralow-adhesion 96-well plates (Corning Inc., Corning, NY, USA). […] Pictures were taken with an AMG Evos microscope 40× objective (Thermo Fisher Scientific Inc, Waltham, MA, USA) and the spheroid areas were measured using the ImageJ software (NIH, Bethesda, MD, USA).

[9] = Homo sapiens, Table 1, MTT, 48 h exposure, mean ± SEM

CNC(=O)c1ccccc1Sc1ccc2c(/C=C/c3ccccn3)n[nH]c2c1 [Axitinib, axitinib] was tested, and the IC50 [1] was over 100 µM, the IC50 [2] was over 100 µM and the “Specificity Index relative to C8D1A, DAOY” value ([3]; ratio IC50 C8-D1A / IC50 DAOY) was over 40. For the same compound, the “Specificity Index relative to HDF, DAOY” value ([3]; ratio IC50 HDF / IC50 DAOY) was over 40, the IC50 ([4]; Homo sapiens, HD-MB03, Table 1, MTT, 48 h exposure, mean ± SEM) was 0.47 ± 0.2 µM and the “Specificity Index relative to C8D1A, HDMB” value ([4]; ratio IC50 C8-D1A / IC50 HD-MB03) was over 200. For the same compound, the “Specificity Index relative to HDF, HD-MB03” value ([4]; ratio IC50 HDF / IC50 HD-MB03) was over 200, the IC50 [5, 9] was 0.49 ± 0.4 µM and the “Specificity Index relative to C8D1A, D458” value ([5]; ratio IC50 C8-D1A / IC50 D458) was over 200. The “Specificity Index relative to HDF, D458” value ([5]; ratio IC50 HDF / IC50 D458) was over 200, the IC50 [6, 9] was 3.9 ± 0.23 µM and the “Specificity Index relative to C8D1A, CHLA-01-Med” value ([6]; ratio IC50 C8-D1A / IC50 CHLA-01-Med) was over 25. The “Specificity Index relative to HDF, CHLA-01-Med” value ([6]; ratio IC50 HDF / IC50 CHLA-01-Med) was over 25, the “enrichment of the proportion of astrocytes relative to the total number of cells” value [7] was 40–60% and the “relative fluorescence of MB vs. normal cells in mixed spheroids” value [8] was “decrease in the relative fluorescence of MB vs. normal cells”.
